Measurements reported in PubChem BioAssay AID493246 (Drosophila RNAi Screening Center, 2011).
Purpose: 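Genes fly cells need to grow and stay alive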 (primary screen). System: Drosophila Kc and S2R+ cells. Reagent: long dsRNA against Drosophila genes. Measurement: 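Raw, unnormalised count of remaining cells in each well; per-plate z-scores of cell number underlie the calls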. Scale: Kc cell number and S2R+ cell number: higher = more cells remaining. Hit rule: 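Active when the per-plate z-score of cell number is 3 or more in the direction of fewer cells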.
The deposit covers about 21,000 reagents; shown is an unselected part of those with a known target gene and a result. Of all reagents, 429 (2%) got an active call. 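Values are raw and not normalised between plates; calls rest on per-plate z-scores that were not deposited.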 Names joined by + are all predicted targets of the reagent. Not given: the amount of reagent, the time to read-out.

predicted target,DRSC id,"Kc cell number, rep 1","Kc cell number, rep 2","S2R+ cell number, rep 1","S2R+ cell number, rep 2",outcome
CG2211,DRSC08559,1.30e6,1.30e6,9.65e5,1.17e6,inactive
CG8925,DRSC16455,1.36e6,1.59e6,1.06e6,1.16e6,inactive
CG8925,DRSC16456,1.28e6,1.42e6,1.09e6,1.21e6,inactive
CG8925,DRSC16457,1.20e6,1.32e6,1.10e6,1.24e6,inactive
Adsl,DRSC15500,1.45e6,1.52e6,1.08e6,1.13e6,inactive
t-Grip91,DRSC01506,1.61e6,1.61e6,9.97e5,1.20e6,inactive
CG17777,DRSC18137,1.60e6,1.61e6,1.08e6,1.23e6,inactive
ush,DRSC00843,1.46e6,1.45e6,5.89e5,7.77e5,inactive
ND-13B,DRSC10643,1.22e6,1.39e6,1.09e6,1.23e6,inactive
Klp61F,DRSC08671,1.31e6,1.26e6,6.39e5,8.18e5,inactive
c12.2,DRSC18751,1.76e6,1.58e6,1.01e6,1.06e6,inactive
CG2278,DRSC18226,1.51e6,1.46e6,1.01e6,1.12e6,inactive
CG42269,DRSC10670,1.40e6,1.42e6,1.16e6,1.20e6,inactive
CG42269,DRSC10672,1.57e6,1.44e6,1.21e6,1.24e6,inactive
DnaJ-1,DRSC11145,1.18e6,1.33e6,1.09e6,8.92e5,inactive
CG5541,DRSC19946,6.13e5,,8.43e5,,inactive
CG17105,DRSC02574,1.70e6,1.66e6,1.28e6,1.54e6,inactive
fiz,DRSC20188,6.21e5,,8.14e5,,inactive
ORMDL,DRSC11737,1.41e6,1.51e6,1.20e6,1.31e6,inactive
Prosbeta2R1,DRSC18154,1.46e6,1.44e6,1.03e6,1.14e6,inactive
POSH,DRSC07499,1.64e6,1.66e6,1.28e6,1.42e6,inactive
CG13060,DRSC09943,1.43e6,1.58e6,1.27e6,1.43e6,inactive
Lcp65Ae,DRSC11212,1.50e6,1.68e6,1.28e6,1.24e6,inactive
Cpr49Ah,DRSC07204,1.39e6,1.46e6,1.18e6,1.33e6,inactive
CG15252,DRSC17981,1.63e6,1.49e6,1.03e6,1.18e6,inactive
CG14340,DRSC00370,1.45e6,1.53e6,9.94e5,1.11e6,inactive
CG9825,DRSC04569,1.57e6,1.65e6,1.34e6,1.46e6,inactive
CG4074,DRSC11752,1.31e6,1.26e6,1.27e6,1.41e6,inactive
RpS2,DRSC03614,9.00e5,9.80e5,7.48e5,8.93e5,inactive
bmm,DRSC10502,1.43e6,1.56e6,1.24e6,1.22e6,inactive
CG11790,DRSC14390,1.80e6,1.84e6,1.48e6,1.53e6,inactive
Nepl15,DRSC15630,1.63e6,1.63e6,1.30e6,1.31e6,inactive
Secp43,DRSC00454,1.52e6,1.51e6,1.10e6,1.23e6,inactive
Or1a,DRSC18689,1.59e6,1.74e6,1.10e6,1.46e6,inactive
fog,DRSC20646,1.80e6,1.82e6,1.10e6,1.19e6,inactive
CG7970,DRSC08605,1.31e6,1.39e6,1.16e6,1.21e6,inactive
Eig71Eg,DRSC11154,1.40e6,1.52e6,1.22e6,1.31e6,inactive
CG5347,DRSC19942,1.47e6,1.51e6,1.09e6,1.15e6,inactive
meru,DRSC09400,1.41e6,1.49e6,1.12e6,1.29e6,inactive
meru,DRSC09899,1.28e6,1.39e6,9.39e5,1.08e6,inactive
meru,DRSC10215,1.37e6,1.36e6,1.25e6,1.33e6,inactive
Sumo,DRSC03611,6.81e5,9.31e5,3.40e5,4.20e5,active
Fer2LCH,DRSC16672,1.42e6,1.40e6,9.44e5,1.05e6,inactive
CG10657,DRSC09768,1.45e6,1.43e6,1.07e6,1.16e6,inactive
Cp19,DRSC11121,1.35e6,1.29e6,1.14e6,1.16e6,inactive
MrgBP,DRSC06417,1.41e6,1.38e6,1.30e6,1.43e6,inactive
CG32237,DRSC08312,1.31e6,1.36e6,1.22e6,1.28e6,inactive
CG32237,DRSC08315,1.40e6,1.33e6,1.13e6,1.23e6,inactive
Lk,DRSC10022,1.33e6,1.40e6,1.24e6,1.27e6,inactive
Spf30,DRSC11976,1.51e6,1.58e6,1.08e6,1.24e6,inactive
twe,DRSC03628,1.32e6,1.32e6,1.37e6,1.36e6,inactive
CG32369,DRSC10042,1.46e6,1.35e6,1.18e6,1.16e6,inactive
CG32369,DRSC10834,1.45e6,1.52e6,1.35e6,1.26e6,inactive
CG14605,DRSC12549,1.52e6,1.56e6,1.34e6,1.48e6,inactive
Ipk2,DRSC00357,1.60e6,1.65e6,1.01e6,1.15e6,inactive
CG4806,DRSC04491,1.61e6,1.75e6,1.18e6,1.42e6,inactive
snoRNA:Me28S-C3227a + snoRNA:Me18S-A1061 + snoRNA:Me28S-C3227b + 7 more,DRSC05497,1.42e6,1.51e6,9.64e5,1.14e6,inactive
GCC88,DRSC14264,1.51e6,1.57e6,1.23e6,1.35e6,inactive
CG5767,DRSC06953,1.56e6,1.62e6,1.18e6,1.20e6,inactive
